Results are given in words; binding and its absence hold for the method and conditions named. Binding seen in cells or lysates may run through a third protein. Some results given as binding are weak or reduced against the parent protein; the word gives no strength.

Sequences of proteins named here, by UniProt entry; tags and fusion partners are left off.
UniProt Q9UER7: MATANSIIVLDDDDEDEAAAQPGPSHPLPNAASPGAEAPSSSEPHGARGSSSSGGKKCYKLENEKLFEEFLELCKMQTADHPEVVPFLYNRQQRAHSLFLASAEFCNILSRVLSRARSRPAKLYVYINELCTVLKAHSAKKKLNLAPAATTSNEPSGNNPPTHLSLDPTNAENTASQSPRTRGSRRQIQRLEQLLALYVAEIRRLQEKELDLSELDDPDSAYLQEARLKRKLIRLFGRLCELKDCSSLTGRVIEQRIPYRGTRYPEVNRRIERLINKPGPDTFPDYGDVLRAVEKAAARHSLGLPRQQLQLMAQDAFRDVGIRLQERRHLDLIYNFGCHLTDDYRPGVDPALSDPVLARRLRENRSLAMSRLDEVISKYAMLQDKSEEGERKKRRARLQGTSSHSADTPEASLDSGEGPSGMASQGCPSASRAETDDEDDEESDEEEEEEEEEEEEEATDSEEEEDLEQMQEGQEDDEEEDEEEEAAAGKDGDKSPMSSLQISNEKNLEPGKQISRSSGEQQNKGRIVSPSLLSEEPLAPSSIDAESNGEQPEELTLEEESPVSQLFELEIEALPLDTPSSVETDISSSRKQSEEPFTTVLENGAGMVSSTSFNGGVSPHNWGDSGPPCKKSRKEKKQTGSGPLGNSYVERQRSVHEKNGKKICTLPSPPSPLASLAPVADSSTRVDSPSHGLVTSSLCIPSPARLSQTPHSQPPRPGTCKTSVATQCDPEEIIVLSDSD
UniProt Q99814: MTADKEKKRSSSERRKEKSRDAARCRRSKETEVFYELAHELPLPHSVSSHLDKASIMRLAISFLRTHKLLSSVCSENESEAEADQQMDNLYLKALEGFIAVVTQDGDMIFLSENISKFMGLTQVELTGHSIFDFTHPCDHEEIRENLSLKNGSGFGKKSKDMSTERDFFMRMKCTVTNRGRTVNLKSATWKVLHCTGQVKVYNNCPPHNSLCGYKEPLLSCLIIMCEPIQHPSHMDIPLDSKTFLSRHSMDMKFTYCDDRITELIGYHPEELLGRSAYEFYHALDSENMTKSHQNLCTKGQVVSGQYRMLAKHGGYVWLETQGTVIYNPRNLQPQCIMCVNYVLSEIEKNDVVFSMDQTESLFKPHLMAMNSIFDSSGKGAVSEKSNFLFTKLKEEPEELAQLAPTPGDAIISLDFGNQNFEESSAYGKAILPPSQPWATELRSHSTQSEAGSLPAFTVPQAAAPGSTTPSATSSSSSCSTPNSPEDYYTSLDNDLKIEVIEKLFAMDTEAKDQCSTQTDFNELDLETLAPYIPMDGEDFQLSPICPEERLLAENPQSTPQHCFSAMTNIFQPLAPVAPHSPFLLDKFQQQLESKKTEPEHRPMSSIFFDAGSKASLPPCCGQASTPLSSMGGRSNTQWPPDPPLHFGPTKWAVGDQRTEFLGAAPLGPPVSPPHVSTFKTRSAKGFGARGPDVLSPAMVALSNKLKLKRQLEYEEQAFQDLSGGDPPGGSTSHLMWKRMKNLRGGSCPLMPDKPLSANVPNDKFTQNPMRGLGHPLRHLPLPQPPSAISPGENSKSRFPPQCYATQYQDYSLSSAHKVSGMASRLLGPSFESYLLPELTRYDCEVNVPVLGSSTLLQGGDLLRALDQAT

In experiment [1] the target is T1, NUSAP1 (endogenous, TNBC cells) (human (endogenous in MDA-MB-231, MDA-MB-468, HCC1937)) (UniProt Q9BXS6).
T1 sequence: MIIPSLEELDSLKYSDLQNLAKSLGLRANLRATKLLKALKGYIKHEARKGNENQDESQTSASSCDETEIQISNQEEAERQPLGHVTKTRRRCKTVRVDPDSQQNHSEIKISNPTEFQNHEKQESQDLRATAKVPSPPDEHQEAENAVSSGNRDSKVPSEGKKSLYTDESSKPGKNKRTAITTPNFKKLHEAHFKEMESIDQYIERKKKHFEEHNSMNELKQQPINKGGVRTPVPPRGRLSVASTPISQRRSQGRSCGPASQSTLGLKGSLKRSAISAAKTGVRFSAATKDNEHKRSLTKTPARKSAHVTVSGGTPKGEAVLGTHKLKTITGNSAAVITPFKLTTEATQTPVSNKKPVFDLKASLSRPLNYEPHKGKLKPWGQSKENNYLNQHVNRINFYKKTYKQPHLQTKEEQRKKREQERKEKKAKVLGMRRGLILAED
The experiment in a line: co-IP; cell lysates in NETN buffer (10 mM Tris-HCl, 150 mM NaCl, 1 mM EDTA, 0.5% NP-40, pH 7.4), indicated antibodies and protein A/G magnetic beads overnight at 4 °C, immunoblot; TNBC cells treated with MG132 (10 µM, 6 h), 1% O2 for 6 h or normoxic; also with shNUSAP1, shDAXX, NUSAP1, DAXX or TS-MAD overexpression. On the technique in general: In western blotting, separated proteins are transferred to a membrane and probed.

Experiment [2] concerns the target DAXX (in TNBC cells) (human (endogenous in MDA-MB-231, MDA-MB-468)) (UniProt Q9UER7). The experiment is described as above.

For the molecule “DAXX (in TNBC cells) (from UniProt Q9UER7 1-740)”, in experiment [1], the binding entry was “binds”. Turning to “HIF2α (in TNBC cells) (from UniProt Q99814 1-870)”, the binding entry in experiment [1] was “binds”.

B1: SUV39H1 (in TNBC cells) (enzyme, UniProt O43463 1-412)
chain: MAENLKGCSVCCKSSWNQLQDLCRLAKLSCPALGISKRNLYDFEVEYLCDYKKIREQEYYLVKWRGYPDSESTWEPRQNLKCVRILKQFHKDLERELLRRHHRSKTPRHLDPSLANYLVQKAKQRRALRRWEQELNAKRSHLGRITVENEVDLDGPPRAFVYINEYRVGEGITLNQVAVGCECQDCLWAPTGGCCPGASLHKFAYNDQGQVRLRAGLPIYECNSRCRCGYDCPNRVVQKGIRYDLCIFRTDDGRGWGVRTLEKIRKNSFVMEYVGEIITSEEAERRGQIYDRQGATYLFDLDYVEDVYTVDAAYYGNISHFVNHSCDPNLQVYNVFIDNLDERLPRIAFFATRTIRAGEELTFDYNMQVDPVDMESTRMDSNFGLAGLPGSPKKRVRIECKCGTESCRKYLF
As for B1, the binding entry in experiment [2] is listed as “binds”.
